We go through one compound from publication PMC8486872, “A rational blueprint for the design of chemically-controlled protein switches” (Nature Communications, 2021).

SMILES strings stand for the structures. Some entries of the source have several records that differ or are many. They are shown here; other results are not. The source may hold further records. Results that share an entry differ for a reason that is not stated; some may be repeats, others may stem from another dose, organism or construct than stated.

The test system of the assay is SEAP and Luciferase expression in HEK293T cells. Description: SIMO designer cells (AIR-1/2-GEMS + CDH-1/2-TF). Conditions: Fig S13h; AIR-1-GEMS control SEAP expression only; Drug-1 1000 nM.

In the case of `CN(C)CC#Cc1ccc(OCCCc2sc(N3CCc4cccc(C(=O)Nc5nc6ccccc6s5)c4C3)nc2C(=O)O)c(F)c1`, the SEAP is given as 325 U/L, 295 U/L, 647 U/L.
